Results deposited as PubChem BioAssay AID1259254 (NCATS, 2017)
The whole screen tested about 59,000 reagents; this is a random part of them. In the full data, about 1,550 (2.6%) got an active call. 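G2 share is only a proxy for re-replication; each gene was hit by three separate siRNAs, and active genes were retested.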 Reagents against one gene are numbered here. Further read-outs or replicates are left out here. Reagent sequences are not shown. Not given: the amount of reagent.

Test: 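Finding genes that stop cells copying their DNA twice in one cycle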 (primary screen)
Cells: human HCT116 colorectal cancer cells
Reagent: single siRNA against human genes
Duration: 3 days
Measured: 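Nuclei stained with Hoechst and imaged; cell-cycle phase assigned by DNA content; G2 share scaled per plate, non-targeting siRNA 0%, GMNN siRNA 100%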
Direction: G2 robust z-score: higher = more G2 cells, more excess DNA replication
Call rule: 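Active siRNAs have a G2 robust z of 5 or more median absolute deviations over the median, which in these data means about 38% or higher of GMNN control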

With SP2 #1, how do the results read?
G2 robust z-score: -1.44; Outcome: inactive

With SP2 #2, how do the results read?
G2 robust z-score: 2.96; Outcome: inactive

What is on record for SP2 #3?
G2 robust z-score: 1.32; Outcome: inactive

What did the screen give for LYRM4 #1?
G2 robust z-score: 0.423; Outcome: inactive

What is on record for LYRM4 #2?
G2 robust z-score: -1.08; Outcome: inactive

What did the screen give for LYRM4 #3?
G2 robust z-score: 0.0162; Outcome: inactive

2 neighbouring reagents already listed:
LYRM4 #1 → G2 robust z-score: 0.423; Outcome: inactive
LYRM4 #2 → G2 robust z-score: -1.08; Outcome: inactive

More entries follow:
How did the screen score BACH1 #1?
G2 robust z-score: 0.213; Outcome: inactive

With BACH1 #2, what was measured?
G2 robust z-score: -0.278; Outcome: inactive

Which result is listed for BACH1 #3?
G2 robust z-score: -0.328; Outcome: inactive

How did the screen score CYP4F2 #1?
G2 robust z-score: 0.0459; Outcome: inactive

For CYP4F2 #2, how do the results read?
G2 robust z-score: 0.0457; Outcome: inactive

With CYP4F2 #3, what does the deposit list?
G2 robust z-score: 0.605; Outcome: inactive
